Experimental data: PubChem BioAssay AID1347426 (Functional Genomics Laboratory (NCATS/FGL), 2020)
The campaign covered roughly 31,000 sequences. About 1,400 (4.5%) were called active.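 Rule for the calls: active = median seed-adjusted z-score above 1 or below -1; inactive = the rest.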 The list shows a part of the results.

Test: Novel Modifiers of Survival Motor Neuron (SMN) Protein: Gene Identification via Genome-wide siRNA Screen;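 note: luminescence tracks full-length SMN protein made from the SMN2 reporter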
Details: HEK293T SMN2-luciferase reporter, siRNA knockdown, 72 h; actives lie on both sides
How it was run: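 siRNA screen, 10418 genes ×3 siRNAs; 1 pmol/well, lipid reverse transfection into HEK293T SMN2-luc reporter line. 72 h, 37 °C, 5% CO2; ONE-Glo readout. Data: neg-ctrl normalized, log10, MAD; hit = MAD >1.0 or < -1.0.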
For CUGUGAUUGAUGAAAUAGATT against SPATA5L1, the median seed-adjusted z-score was inactive: 0.252. For CCGGGACAUUGACACAGCATT against ATP5G1, the median seed-adjusted z-score was inactive: -0.311. In the case of GACCCGCUGUUAGACAUCATT against CNTN3, the median seed-adjusted z-score is reported as inactive: 0.732. With GAGAAGUUCCUGACAAAGATT against METTL7B the median seed-adjusted z-score was inactive: 0.223. For CCACGUGUCUAACACCAAUTT against KRT79, the median seed-adjusted z-score was inactive: 0.338. For CCAUGUUAGAAGCCCGGAATT against ZNF385D, the median seed-adjusted z-score was inactive: -0.338. For CGCCCGAUUUUGGAACUAATT against ELMO1, the median seed-adjusted z-score was inactive: -0.00404. For GAUCAUCUAUGACCGGAAATT against EIF4EBP1, the median seed-adjusted z-score was inactive: -0.161. In the case of GCAUCAUGAUUACGGGAAATT against SPO11, the median seed-adjusted z-score is reported as inactive: 0.475. For CAUUCUGUGGUGAAACAUUTT against SCLY, the median seed-adjusted z-score was inactive: 0.00396. For GGGUCAUUCUAUGGGCAAATT against OGFOD2, the median seed-adjusted z-score was inactive: 0.493. For CAAAGGGAAGCAAAAACAATT against HMGA1, the median seed-adjusted z-score was inactive: 0.557. For GUUUACCUCUGGAUACACUTT against SNRPD1, the median seed-adjusted z-score was active: -2.97. With GCUUUAAUGCAGAUGUGCATT against COX11 the median seed-adjusted z-score was inactive: -0.317. In the case of AGUGCUCAGCAUUACGUAATT against EIF5A, the median seed-adjusted z-score is reported as inactive: 0.00397. With GGAUUUACCUUGUUCUAUATT against MTF2 the median seed-adjusted z-score was inactive: 0. In the case of GGUGCUACGUGUACCAUAATT against RRH, the median seed-adjusted z-score is reported as inactive: -0.0112. With CAAGUAUAUCAUUCGAAUATT against CLCA1 the median seed-adjusted z-score was inactive: 0.015. With CUCUAGAACCCAAUCCAAUTT against GIPC3 the median seed-adjusted z-score was inactive: -0.27. In the case of GGCCUGCUGCAUGUACAUATT against PVRL4, the median seed-adjusted z-score is reported as inactive: -0.266. In the case of CAGUCAUUCGGCUCAAAAATT against ADA, the median seed-adjusted z-score is reported as inactive: -0.242. In the case of AAACACCCAUGAACAUCAATT against WWTR1, the median seed-adjusted z-score is reported as inactive: -0.579. For GGAGGAUGCCUGAAUUCUATT against ASS1, the median seed-adjusted z-score was inactive: 0.0886. In the case of GCCGGAUGGUUAAGAAGAUTT against STK40, the median seed-adjusted z-score is reported as inactive: -0.555. With CGCUACUUCUUGGACAAGATT against BCKDK the median seed-adjusted z-score was inactive: 0. For CGAAAGCUUCUGAAUCAUUTT against FKBP5, the median seed-adjusted z-score was inactive: -0.598. With CCCUGUAUCUUGAUGAACATT against UNC13C the median seed-adjusted z-score was inactive: -0.136. With GAGUCAAAUAUGGAACGAATT against BUB1 the median seed-adjusted z-score was inactive: 0.566. With CGCUGUUCAAUGAACUAUATT against GBA2 the median seed-adjusted z-score was inactive: 0.143. With CCUGUAACCUGUGCCUACATT against DPEP2 the median seed-adjusted z-score was inactive: 0. In the case of GCUCCACACUAAAUCCGCATT against PRKCA, the median seed-adjusted z-score is reported as inactive: -0.249. With CGAGGUGACUGGUACAAGATT against NDUFV1 the median seed-adjusted z-score was inactive: -0.653. In the case of AAGCGGUUGUUUUAGAGCATT against UBR5, the median seed-adjusted z-score is reported as inactive: 0.114. With GGCCUACUCAGGAAUUCAATT against CUGBP2 the median seed-adjusted z-score was inactive: -0.532. In the case of UGUCCUGAGUAAGACCAAATT against GSS, the median seed-adjusted z-score is reported as inactive: 0.122. In the case of CCACUAAAGGAUCAACGUATT against PHKB, the median seed-adjusted z-score is reported as inactive: -0.142. For AAGACAUACCGACCUCUUATT against PPIL3, the median seed-adjusted z-score was inactive: 0.282. For CACGAACUCUUGAAUGGAATT against THPO, the median seed-adjusted z-score was inactive: -0.0366. For UCCUGAAUCUGGACUCUAATT against ST3GAL3, the median seed-adjusted z-score was inactive: -0.133. With GCAUUAUGCGAGUCAACAATT against PSMB4 the median seed-adjusted z-score was inactive: -0.16. For CAAACGAGAUCCUAACCAATT against MAP3K9, the median seed-adjusted z-score was inactive: -0.498. With AGACUAGUUUAUGAGAUAATT against AOC3 the median seed-adjusted z-score was inactive: -0.474. With GGAAAUCCAUGUCCGUGUATT against ATP2A3 the median seed-adjusted z-score was inactive: -0.28. With CGGAAGUUAUCGUUCCGAUTT against FAT1 the median seed-adjusted z-score was inactive: -0.00397. In the case of GCUGCUUUCUGGCUCGAAATT against NEU4, the median seed-adjusted z-score is reported as inactive: -0.152. With GACGCGGUAUGUAGACAUATT against NAT8B the median seed-adjusted z-score was inactive: 0.206. In the case of CUCCUGUUUUGGUCCCGAATT against SV2A, the median seed-adjusted z-score is reported as inactive: 0.138. In the case of GCUCAAAUCUUAUUGACCATT against ZNF383, the median seed-adjusted z-score is reported as inactive: -0.196. For AGGUAGAAGAAAUGCAAUATT against PKIA, the median seed-adjusted z-score was inactive: 0.533. In the case of GCAGGAUGCUGAAAUUGCATT against S100A6, the median seed-adjusted z-score is reported as inactive: -0.264. In the case of CUGUAUCUGUGGACCUGAATT against SNX5, the median seed-adjusted z-score is reported as inactive: -0.141. In the case of CAGUCAGACAUAUUACCUATT against ZNF765, the median seed-adjusted z-score is reported as inactive: 0.541. With CUGUCAAUCUAGUACUAUATT against PIGF the median seed-adjusted z-score was inactive: -0.239. For GGAGUGACCGGAAACAUCATT against PRKCD, the median seed-adjusted z-score was inactive: -0.236. In the case of GGUACUAGCUGUAAGCGGATT against SIX5, the median seed-adjusted z-score is reported as inactive: 0. With CCUAUUAAACAGUACAGAUTT against MC4R the median seed-adjusted z-score was inactive: 0.154. For CCCGCUACAUUUACGUUGUTT against ACER1, the median seed-adjusted z-score was inactive: 0.308. With CCGUGGAGAUGAUACAGGATT against DDX25 the median seed-adjusted z-score was inactive: 0. In the case of GGGUCUCCUGAGUUAGGUATT against ELF2, the median seed-adjusted z-score is reported as inactive: -0.514. For GCGAGAGGCUAUCACUGCATT against BLOC1S1, the median seed-adjusted z-score was inactive: 0.0692. With GCCUUCUAGAUUUACCCGATT against NKX2-8 the median seed-adjusted z-score was inactive: 0.104. In the case of UGGUAUAUCCAGUAUGUGATT against MLXIPL, the median seed-adjusted z-score is reported as inactive: 0. With CGUUAACCAUUGACAGGUATT against GPR139 the median seed-adjusted z-score was inactive: 0.0111. With GCCUCAAAGUCUUGAAGAATT against TTC9 the median seed-adjusted z-score was inactive: -0.173. In the case of GGAUUUGGGCUGUAUGGAUTT against BTBD2, the median seed-adjusted z-score is reported as inactive: 0.0303. With GGUAUAAACGCGUCCAGCATT against MAFB the median seed-adjusted z-score was inactive: 0.674. For AGGGCUCCUUUGUCACAAATT against MCAT, the median seed-adjusted z-score was inactive: 0. In the case of GCGGGACUAUGUGAUCGAATT against MCM2, the median seed-adjusted z-score is reported as inactive: 0. For CCAUUAUGAUCGUAAGGCATT against GCNT4, the median seed-adjusted z-score was inactive: -0.0629.
